# In the supplement of paper PMC11438910:
# The other results are listed elsewhere or left out. Only a few entries rise above the background.
# B1: 4-173.3 (protein)
# chain 1: QLQLQESGPGLVKPSETLSLTCAVSGGSINNNYWSWIRQPPGKGLEWIGRIFGSGGSTDYNPSLKSRVTISTDTSKTQFSLNLNSVTAADTAVYFCARGSYQVDYWGQGVLVTVSS
# chain 2: QAALTQPPSMSGSPGQSVTISCTGTSSDIGGWNRVSWYQQYPGKAPKLMIYEVSKRPSGVSDRFSGSKSGNTASLTISGLQAEDEADYYCSSYVHINNALFGGGTRLTVL
# Columns and labels:
# Test in all cases: fluorescence intensity of antibody binding to polysaccharide-coupled beads; higher = stronger binding
# [1] = target: pneumococcal polysaccharide Pn22A
# [2] = target: pneumococcal polysaccharide Pn22F
# [3] = target: pneumococcal polysaccharide Pn23A
# [4] = target: pneumococcal polysaccharide Pn23B
# [5] = target: pneumococcal polysaccharide Pn23F
# [6] = target: pneumococcal polysaccharide Pn24A
# [7] = target: pneumococcal polysaccharide Pn24B
# [8] = target: pneumococcal polysaccharide Pn24F
# [9] = target: pneumococcal polysaccharide Pn25A
# [10] = target: pneumococcal polysaccharide Pn25F
# [11] = target: pneumococcal polysaccharide Pn27
# [12] = target: pneumococcal polysaccharide Pn28A
# [13] = antibody concentration 81.7561 ng/mL
# [14] = antibody concentration 437.17 ng/mL
# [15] = antibody concentration 2337.65 ng/mL
# [16] = antibody concentration 12500 ng/mL
# [17] = antibody concentration 0.1 ng/mL
# [18] = antibody concentration 0.534724 ng/mL
# [19] = antibody concentration 2.8593 ng/mL
# [20] = antibody concentration 15.2894 ng/mL
binder,measurement,setting,value
B1,fluorescence intensity,[1]; [13],19 MFI
same,fluorescence intensity,[1]; [14],20.5 MFI
same,fluorescence intensity,[1]; [15],23.8 MFI
same,fluorescence intensity,[1]; [16],39.5 MFI
same,fluorescence intensity,[2]; [17],29 MFI
same,fluorescence intensity,[2]; [18],30 MFI
same,fluorescence intensity,[2]; [19],31.5 MFI
same,fluorescence intensity,[2]; [20],31.5 MFI
same,fluorescence intensity,[2]; [13],29.5 MFI
same,fluorescence intensity,[2]; [14],29 MFI
same,fluorescence intensity,[2]; [15],31 MFI
same,fluorescence intensity,[2]; [16],39.2 MFI
same,fluorescence intensity,[3]; [17],22 MFI
same,fluorescence intensity,[3]; [18],23.2 MFI
same,fluorescence intensity,[3]; [19],23 MFI
same,fluorescence intensity,[3]; [20],23.5 MFI
same,fluorescence intensity,[3]; [13],23 MFI
same,fluorescence intensity,[3]; [14],27 MFI
same,fluorescence intensity,[3]; [15],33.5 MFI
same,fluorescence intensity,[3]; [16],56.8 MFI
same,fluorescence intensity,[4]; [17],29 MFI
same,fluorescence intensity,[4]; [18],30 MFI
same,fluorescence intensity,[4]; [19],30.2 MFI
same,fluorescence intensity,[4]; [20],31.5 MFI
same,fluorescence intensity,[4]; [13],29.5 MFI
same,fluorescence intensity,[4]; [14],30.5 MFI
same,fluorescence intensity,[4]; [15],31.8 MFI
same,fluorescence intensity,[4]; [16],37.5 MFI
same,fluorescence intensity,[5]; [17],16 MFI
same,fluorescence intensity,[5]; [18],16 MFI
same,fluorescence intensity,[5]; [19],17 MFI
same,fluorescence intensity,[5]; [20],18 MFI
same,fluorescence intensity,[5]; [13],16.2 MFI
same,fluorescence intensity,[5]; [14],18 MFI
same,fluorescence intensity,[5]; [15],19.5 MFI
same,fluorescence intensity,[5]; [16],30 MFI
same,fluorescence intensity,[6]; [17],16 MFI
same,fluorescence intensity,[6]; [18],15.5 MFI
same,fluorescence intensity,[6]; [19],15.5 MFI
same,fluorescence intensity,[6]; [20],15 MFI
same,fluorescence intensity,[6]; [13],13 MFI
same,fluorescence intensity,[6]; [14],16.5 MFI
same,fluorescence intensity,[6]; [15],17 MFI
same,fluorescence intensity,[6]; [16],22 MFI
same,fluorescence intensity,[7]; [17],16.5 MFI
same,fluorescence intensity,[7]; [18],16.8 MFI
same,fluorescence intensity,[7]; [19],17 MFI
same,fluorescence intensity,[7]; [20],16.5 MFI
same,fluorescence intensity,[7]; [13],17 MFI
same,fluorescence intensity,[7]; [14],18 MFI
same,fluorescence intensity,[7]; [15],19.2 MFI
same,fluorescence intensity,[7]; [16],33.5 MFI
same,fluorescence intensity,[8]; [17],16.8 MFI
same,fluorescence intensity,[8]; [18],15.2 MFI
same,fluorescence intensity,[8]; [19],16.5 MFI
same,fluorescence intensity,[8]; [20],16 MFI
same,fluorescence intensity,[8]; [13],15 MFI
same,fluorescence intensity,[8]; [14],18.8 MFI
same,fluorescence intensity,[8]; [15],22.8 MFI
same,fluorescence intensity,[8]; [16],34.5 MFI
same,fluorescence intensity,[9]; [17],22 MFI
same,fluorescence intensity,[9]; [18],23 MFI
same,fluorescence intensity,[9]; [19],24 MFI
same,fluorescence intensity,[9]; [20],23.2 MFI
same,fluorescence intensity,[9]; [13],24 MFI
same,fluorescence intensity,[9]; [14],24 MFI
same,fluorescence intensity,[9]; [15],25.5 MFI
same,fluorescence intensity,[9]; [16],35 MFI
same,fluorescence intensity,[10]; [17],27.5 MFI
same,fluorescence intensity,[10]; [18],28.8 MFI
same,fluorescence intensity,[10]; [19],29.5 MFI
same,fluorescence intensity,[10]; [20],29.8 MFI
same,fluorescence intensity,[10]; [13],31 MFI
same,fluorescence intensity,[10]; [14],28.5 MFI
same,fluorescence intensity,[10]; [15],30.5 MFI
same,fluorescence intensity,[10]; [16],37 MFI
same,fluorescence intensity,[11]; [17],15.5 MFI
same,fluorescence intensity,[11]; [18],16 MFI
same,fluorescence intensity,[11]; [19],17 MFI
same,fluorescence intensity,[11]; [20],17 MFI
same,fluorescence intensity,[11]; [13],15.8 MFI
same,fluorescence intensity,[11]; [14],17 MFI
same,fluorescence intensity,[11]; [15],23.5 MFI
same,fluorescence intensity,[11]; [16],62 MFI
same,fluorescence intensity,[12]; [17],26.2 MFI
same,fluorescence intensity,[12]; [18],23.8 MFI
same,fluorescence intensity,[12]; [19],26 MFI
same,fluorescence intensity,[12]; [20],24.5 MFI
same,fluorescence intensity,[12]; [13],25.8 MFI
same,fluorescence intensity,[12]; [14],26 MFI

# Nothing new here: entries from further up.
binder,measurement,setting,value
B1,fluorescence intensity,[7]; [15],19.2 MFI
same,fluorescence intensity,[7]; [16],33.5 MFI
same,fluorescence intensity,[8]; [17],16.8 MFI
same,fluorescence intensity,[8]; [18],15.2 MFI
same,fluorescence intensity,[8]; [19],16.5 MFI
same,fluorescence intensity,[8]; [20],16 MFI
same,fluorescence intensity,[8]; [13],15 MFI
same,fluorescence intensity,[8]; [14],18.8 MFI
same,fluorescence intensity,[8]; [15],22.8 MFI
same,fluorescence intensity,[8]; [16],34.5 MFI
same,fluorescence intensity,[9]; [17],22 MFI
same,fluorescence intensity,[9]; [18],23 MFI
same,fluorescence intensity,[9]; [19],24 MFI
same,fluorescence intensity,[9]; [20],23.2 MFI
same,fluorescence intensity,[9]; [13],24 MFI
same,fluorescence intensity,[9]; [14],24 MFI
same,fluorescence intensity,[9]; [15],25.5 MFI
same,fluorescence intensity,[9]; [16],35 MFI
same,fluorescence intensity,[10]; [17],27.5 MFI
same,fluorescence intensity,[10]; [18],28.8 MFI
same,fluorescence intensity,[10]; [19],29.5 MFI
same,fluorescence intensity,[10]; [20],29.8 MFI
same,fluorescence intensity,[10]; [13],31 MFI
same,fluorescence intensity,[10]; [14],28.5 MFI
